Assay results reported in US20210054393A1, “GENES FOR HORMONE-FREE PLANT REGENERATION” (priority 2018, published 2021).
For at least one compound, name, drawing or mass did not settle the structure.

Tested on: Arabidopsis seedlings
Test: Hormone-independent shoot regeneration of Arabidopsis seedlings after chemical induction of the transformed constructs
Type: in vivo, Arabidopsis thaliana
Details: roots of non-transformed Arabidopsis, induced with 10 μM; result in words
Method: For plant transformation, vector SHOOT REGENERATION was introduced into A. tumefaciens (strain C58C1.pMP90) by electroporation. Transformant A. tumefaciens were used to transform A. thaliana plants of the Col-0 ecotype by the floral dip method (Clough, 1998).
Seeds were surface sterilised by chlorin gas by the vapor sterilisation method (Lindsey, 2017). After sterilisation, the seeds were suspended in a 0.1% agarose solution, before being stratified at 4° C. in darkness for 48 hours. Subsequently, the seeds were plated on germination medium under sterile conditions. The seeds were plated on a fine nylon mesh (100 μm), which allowed for the contact with the medium without allowing seedlings to penetrate the mesh. The plates with the seedlings were sealed with surgical tape (3M, Micropore) to prevent desiccation. The plates were placed in upright position in a growth chamber (22° C., 120-150 μmol/m^2s with 16 h light/8 h dark photoperiodlight). The plates were left to grow in these circumstances for 5 days.
After 5 days of growth, the seedlings were transplanted under sterile conditions by transporting the mesh on which they were growing from the germination medium to the induction medium. The plates with the seedlings were sealed with surgical tape (3M, Micropore) to prevent desiccation. The plates were placed back in the growth chamber in upright position. […]

In the case of `C[C@@H]1C[C@H]2[C@@H]3CCC4=CC(=O)C=C[C@]4(C)[C@@]3(F)[C@@H](O)C[C@]2(C)[C@@]1(O)C(=O)CO` [DEX, dexamethasone], the “root growth arrest, callus formation or shoot regeneration” value is reported as “never showed any root growth arrest, callus formation or shoot regeneration”.
